## Library screening results

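Viability assay of Plasmodium falciparum sporozoites; the read-out is not stated. The concentration is filed as 10 mM, unlikely as a test dose, so the dose is not known. Higher reads as lower viability (inferred: compounds with an IC50 in retests scored well above the rest). Strong results were mostly tested again. About 34,000 compounds were tested under these conditions; 0.84% (about 280) showed 50% or more at least once.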

Each number is a percent effect as filed. The record does not define 0% and 100%; most values in the screen are far below 50% and negative numbers occur (in some assays of this library far below -100). This is an unselected part of the compounds tested. Two or more numbers in one place are separate tests of the same structure; such repeats can differ widely.

SMILES	Percent Effect
COCC(=O)N1CCCn2c(CN3CCCCC3)nnc2C1.O=C(O)C(F)(F)F	-14.87
CCc1nc(C2CCCN2Cc2cnc(C)cn2)no1 (centres unmarked)	4.522
CC(C)c1nc(C2CCCN2CCOCC2CC2)no1 (centres unmarked)	0
Cc1nc(CN2CCC3(CCCN(Cc4cnn(C)c4)C3)C2=O)cs1.O=C(O)C(F)(F)F.O=C(O)C(F)(F)F (centres unmarked)	6.602
CC(=O)NCC[C@H]1CC(C)(C)Oc2ccccc21	12.62
O=C(c1cnc(-c2cccs2)s1)N1CCCC(n2ccnc2)C1 (centres unmarked)	-1.783
CCCc1nc(C)c(C(=O)NCCNc2ncccc2C#N)s1	-0.5795
CCn1c(Cn2cncn2)nnc1C1CCN(C(=O)CCSC)CC1	-2.999
COC(=O)c1cc2c(OC)c(OC)c(OC)cc2[nH]1	-9.615
CC(C)c1nc(CN2CCCC2CN2CCCC2)cs1 (centres unmarked)	7.581
N#CCc1cccc(C(=O)N2CCN(CC(O)c3ccccc3)CC2)c1 (centres unmarked)	3.566
O=C(N1CCCCC1)N1CCN(CC(O)c2ccc(F)cc2)CC1 (centres unmarked)	-0.3298
CCO[C@@H]1CCN(C(=O)c2cscn2)[C@@H]1Cc1cnn(C)c1	-3.345
CCCNC(=O)C(C)Nc1cccc(Oc2ccc(C#N)cn2)c1 (centres unmarked)	-5.66
CCN1CCC(c2cncc(N(C)C)n2)CC1	2.653
CC(C)n1ccc2cc(C(=O)Nc3nc[nH]n3)ccc21	9.173
CC(C)n1nc(CN2CCOCC2)c2c1CN(Cc1ccsc1)C2.O=C(O)C(F)(F)F.O=C(O)C(F)(F)F	-4.085
O=S(=O)(CCNC1CCc2ncnn2C1)c1ccccc1 (centres unmarked)	3.733
CNC(=O)c1cccc(CN2CCN(C3=NCC(C)(C)S3)CC2)c1	-10.9
Cn1ccnc1CN1C[C@@H](CN2CCC(CO)CC2)[C@@H](CO)C1	-7.647
CN(C)c1nc(O)cc(C2CCN(C(=O)Cc3ccccn3)C2)n1 (centres unmarked)	-9.335
CCc1nnc(NC(=O)Cc2c(C)nc(C)[nH]c2=O)s1	6.334
c1cnn(CC2CN(Cc3ccc(-n4ccnc4)cc3)CCO2)c1 (centres unmarked)	17.19
Cc1nccn1CCC1CCCCN1C(=O)c1ccc2[nH]nnc2c1 (centres unmarked)	-5.794
Cc1ccc(N(C)C2CCN(C(=O)CCc3ccco3)CC2)nn1	-2.924
CC(=O)Nc1nc(CN(C)C2CCCN(c3cccnn3)C2)cs1 (centres unmarked)	10.82
CC(=O)Nc1nc(C(=O)NC(C)c2cccnc2)cs1 (centres unmarked)	1.115
Cc1cc(C(F)(F)F)n2nc(C3CCCN(S(C)(=O)=O)C3)cc2n1 (centres unmarked)	-121.2 and 19.45 and -108.4
Cc1cc(CN(C)C(=O)c2ccc(Cl)c(S(C)(=O)=O)c2)no1	-4.657
COCC(=O)N1CC2=CC(C)(C)COc3ccc(OC)c(c32)C1	-23.98
COC(=O)c1cccn1C1CCN(C(=O)c2ccc(C)cc2O)CC1	-4.424
[H][C@]12C[C@H](NC(=O)c3cc(C)no3)[C@@]1([H])CN(S(=O)(=O)c1ccc(C)cc1)C2	10.33
Cc1cc(NC(=O)CC2(Cn3cnnn3)CCCCC2)nn1C	1.362
Cc1nnc(CN(C)Cc2nc3c(s2)CCCC3)o1	69.64 and 55.12 and 51.62
COc1cccc(CNC(=O)N2CCN(Cc3cc(C)on3)CC2)c1	-1.562
O=C(Cn1ncc(N2CCNCC2)cc1=O)NCCc1ccc(F)cc1	-20.13 and -12.53
Cc1n[nH]cc1CNC1(c2ccc(F)cc2)CCCC1	-2.997
COC(=O)c1cccc(CN(C)Cc2ncnn2C)c1C#N	-6.529
O=C(CC1CC1)NCc1cn2c(n1)CN(Cc1cccc(F)c1)CC2.O=C(O)C(F)(F)F	0.3367
CC1CN(C(=O)CN(Cc2ccco2)C2CC2)CCO1 (centres unmarked)	-14.1
CC(Cn1cccn1)NCc1csc(-c2ccc3c(c2)OCO3)n1 (centres unmarked)	-26.28 and -27.88
CC(=O)Nc1cccc(C(=O)Nc2cnc3n2CCCC3)c1	8.735
Cc1oc(C)c(C(=O)NCc2cccc(C(N)=O)c2)c1C	1.35
Cc1ocnc1C(=O)N1CC[C@@H](O)[C@@H](O)[C@H](N2CCC(F)(F)CC2)C1	5.796
Cc1cnn(CC2CN(Cc3csc(C4CCCC4)n3)CCO2)c1 (centres unmarked)	-1.001
CC(=O)N1CCN(C(=O)c2sccc2Br)CC1	21.84
Cc1nnc2n1CCN(C(=O)c1cc(Cl)c(Br)[nH]1)C2	16.19
c1ccc2nc(N3CCCC(Cn4cncn4)C3)cnc2c1 (centres unmarked)	-28.58 and -25.26
c1ccc(OCCCNCCn2cccn2)cc1	-12.17
[H][C@@]12C[C@H](C(=O)NC(C)C)[C@@]([H])(CN(C(=O)NC(C)C)C1)O2	17.8
Cc1cccnc1NC(=O)CC1(Cn2cnnn2)CCCCC1	-27.85
COCC1CCN(S(=O)(=O)c2ccc(C(=O)NCC(F)F)cc2)C1 (centres unmarked)	-5.074
CC(CNC(=O)N1CCN(Cc2ccon2)CC1)N(C)C1CC1 (centres unmarked)	-18.14
Cc1ccc(NC(=O)c2cc(S(=O)(=O)N3CCCCC3)c[nH]2)cc1F	-5.698
CN1CCC/C1=N\S(=O)(=O)c1ccc(NC(=O)c2ccc(Cl)cc2)cc1	1.891
CN(Cc1cc(Cl)ccc1Cl)Cc1ncnn1C	-24.16
NC(=O)[C@H]1CCCN(c2nccc(-c3c[nH]nc3-c3cccnc3)n2)C1	6.351
Cc1ccccc1OCCN(C)Cc1noc(CC(C)C)n1	10.66
Cn1ncc2c(=O)[nH]c(N3CCCC3c3cccs3)nc21 (centres unmarked)	13.5
COc1cc2ccn(CCS(C)(=O)=O)c(=O)c2cc1F	-3.893
COCC(=O)NCC[C@H]1CC(C)(C)Oc2ccc(OC)cc21	7.705
CCN(C)C1CCCc2nc(C)sc21 (centres unmarked)	0.9989
CC(C)(C)n1cc(C2=CCN(CCN3CCCCCC3)CC2)cn1	-30.5 and -32
Cc1nnc(NC(=O)NCc2cc(F)cc(F)c2)s1	-2.037
NCCn1nc(C2CCN(Cc3ccccc3Cl)C2)c2nccnc21 (centres unmarked)	8.044
CC(C)Cc1nc(CN(C)CCOc2ccccc2F)no1	-10.23
O=C(O)C(F)(F)F.O=C(O)C(F)(F)F.[H][C@@]12COC[C@]1(COCc1ccncc1)CN(CC1CCC1)C2	-9.869
O=C(O)C(F)(F)F.O=C(O)C(F)(F)F.O=C1CC[C@]2(CC[C@@H](NCc3cccnc3)CC2)N1Cc1ccccc1	5.692
CN(C)C(=O)n1c(C(=O)NC(C)(C)CO)cc2c1c1ccccc1n2C	-14.63
Cn1cnnc1CNC(=O)Nc1cc(C(F)(F)F)c[nH]c1=O	4.782
Cc1c(CNS(=O)(=O)c2cccc(COC(C)C)c2)cnn1C	-22.85
Cn1ccnc1CN1CCCN(C(=O)COCC2CC2)CC1	-4.913
CN(Cc1cscn1)C1CCCN(c2cccnn2)C1 (centres unmarked)	1.757
CC(C)(CNc1ccc(S(=O)(=O)C(F)F)cc1)N1CCOCC1	-1.221
CNc1cc(N2CCCC2CNCc2cnc(C)cn2)ncn1 (centres unmarked)	-7.085
O=C(O)c1ccccc1-c1ccc(Cn2c(=O)cc[nH]c2=O)cc1	8.524

Some entries from above, unchanged:

SMILES,Percent Effect
CC(C)(C)n1cc(C2=CCN(CCN3CCCCCC3)CC2)cn1,-30.5 and -32
Cc1nnc(CN(C)Cc2nc3c(s2)CCCC3)o1,69.64 and 55.12 and 51.62
COCC(=O)N1CCCn2c(CN3CCCCC3)nnc2C1.O=C(O)C(F)(F)F,-14.87
Cc1cc(C(F)(F)F)n2nc(C3CCCN(S(C)(=O)=O)C3)cc2n1 (centres unmarked),-121.2 and 19.45 and -108.4
CC(=O)N1CCN(C(=O)c2sccc2Br)CC1,21.84
Cc1c(CNS(=O)(=O)c2cccc(COC(C)C)c2)cnn1C,-22.85
COC(=O)c1cc2c(OC)c(OC)c(OC)cc2[nH]1,-9.615
O=C(O)C(F)(F)F.O=C(O)C(F)(F)F.[H][C@@]12COC[C@]1(COCc1ccncc1)CN(CC1CCC1)C2,-9.869
CC(C)Cc1nc(CN(C)CCOc2ccccc2F)no1,-10.23

Data taken from ChEMBL document CHEMBL3988442, “University of Dundee, Small-Polar-MMV Screening Library” (2021).